Where a chain is given by its changes, count along the chain named. Names and notes keep the numbering of the source. No constants are given. Whether binding was seen depends on the method and setting. Binding seen in cells or lysates may run through a third protein. Some results given as binding are weak or reduced against the parent protein; the word gives no strength. One block for each binder: values may come before it.
Tests used:
[1] = target: syntaxin4 (mouse (endogenous in 3T3-L1 and PTP1B KO adipocytes)) (UniProt P70452); test: co-IP; syntaxin4 immunoprecipitated from lysates of 3T3-L1 adipocytes (WT, Munc18c knockdown, reconstituted R, Y218/219F, Y521F), basal and insulin-stimulated; immunoblot for Munc18c and GLUT4
[2] = target: T1, Munc18c (endogenous) (mouse (endogenous in 3T3-L1 and PTP1B KO adipocytes)) (UniProt Q60770); test: co-IP; Munc18c immunoprecipitated from NP-40 lysates of 3T3-L1 adipocytes (WT, Munc18c knockdown, reconstituted R, Y218/219F, Y521F), basal and insulin-stimulated; immunoblot for PTP1B and syntaxin4
T1 sequence: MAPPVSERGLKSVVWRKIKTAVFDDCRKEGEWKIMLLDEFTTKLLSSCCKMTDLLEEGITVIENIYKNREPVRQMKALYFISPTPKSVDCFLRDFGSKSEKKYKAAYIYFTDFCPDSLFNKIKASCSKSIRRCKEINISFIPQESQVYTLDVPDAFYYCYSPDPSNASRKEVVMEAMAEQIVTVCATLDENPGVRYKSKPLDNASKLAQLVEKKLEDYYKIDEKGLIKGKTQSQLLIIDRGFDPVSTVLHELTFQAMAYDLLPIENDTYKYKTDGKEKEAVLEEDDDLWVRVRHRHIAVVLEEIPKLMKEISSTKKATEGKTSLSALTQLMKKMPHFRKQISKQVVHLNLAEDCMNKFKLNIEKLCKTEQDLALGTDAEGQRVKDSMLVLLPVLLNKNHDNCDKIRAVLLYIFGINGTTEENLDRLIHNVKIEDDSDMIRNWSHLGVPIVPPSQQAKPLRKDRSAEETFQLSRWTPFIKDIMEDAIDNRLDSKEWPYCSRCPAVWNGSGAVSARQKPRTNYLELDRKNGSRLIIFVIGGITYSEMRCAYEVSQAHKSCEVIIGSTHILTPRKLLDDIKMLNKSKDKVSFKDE

Chains of the proteins cited; added tags and fusions are not shown.
UniProt P70452: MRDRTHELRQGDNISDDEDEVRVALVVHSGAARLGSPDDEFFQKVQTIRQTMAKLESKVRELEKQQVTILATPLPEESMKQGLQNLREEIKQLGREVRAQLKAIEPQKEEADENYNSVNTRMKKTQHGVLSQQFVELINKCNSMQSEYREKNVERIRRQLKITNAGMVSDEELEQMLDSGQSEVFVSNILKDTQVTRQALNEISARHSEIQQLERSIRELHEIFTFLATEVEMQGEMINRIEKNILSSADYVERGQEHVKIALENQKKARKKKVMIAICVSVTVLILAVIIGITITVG

[3] = target: T2, Munc18c Y218/219F (mouse) (UniProt Q60770); test: as above
T2 sequence: T1 sequence with Y218F, Y219F

[4] = target: T3, Munc18c Y521F (mouse) (UniProt Q60770); test: as above
T3 sequence: T1 sequence with Y521F

[5] = target: T4, Protein-tyrosine phosphatase 1B substrate-trapping mutant D181A (UniProt P18031); test: co-IP; as a3, insulin-stimulated cells with PTP1B D/A treated with pervanadate
T4 sequence: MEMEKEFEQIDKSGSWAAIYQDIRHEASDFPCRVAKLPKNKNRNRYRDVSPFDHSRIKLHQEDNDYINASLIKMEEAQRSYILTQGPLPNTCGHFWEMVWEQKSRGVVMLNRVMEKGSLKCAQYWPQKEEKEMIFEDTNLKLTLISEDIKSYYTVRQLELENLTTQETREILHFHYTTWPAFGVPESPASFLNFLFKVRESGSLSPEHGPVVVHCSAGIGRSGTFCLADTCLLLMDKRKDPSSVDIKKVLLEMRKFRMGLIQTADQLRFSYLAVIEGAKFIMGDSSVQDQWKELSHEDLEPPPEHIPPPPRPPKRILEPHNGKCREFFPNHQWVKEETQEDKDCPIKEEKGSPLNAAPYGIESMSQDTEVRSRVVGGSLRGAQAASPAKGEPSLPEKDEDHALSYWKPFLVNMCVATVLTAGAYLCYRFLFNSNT

[6] = target: T4, Protein-tyrosine phosphatase 1B substrate-trapping mutant D181A; test: co-IP; PTP1B immunoprecipitated from lysates of PTP1B KO adipocytes reconstituted with PTP1B D/A, basal and insulin-stimulated; immunoblot for Munc18c; substrate trapping, 1% NP40 buffer without orthovanadate
[7] = target: T4, Protein-tyrosine phosphatase 1B substrate-trapping mutant D181A; test: co-IP; PTP1B immunoprecipitated with FG6 from 3T3-L1 cells (WT or Munc18c knockdown reconstituted with Y/F mutants) transiently transfected with PTP1B WT or D/A, starved and insulin-stimulated, lysed in 1% NP40 buffer without orthovanadate; immunoblot for Munc18c

- binding [1]: binds
B1: GLUT4 (protein, UniProt P14142 1-509)
chain: MPSGFQQIGSDDGEPPRQRVTGTLVLAVFSAVLGSLQFGYNIGVINAPQKVIEQSYNATWLGRQGPGGPDSIPQGTLTTLWALSVAIFSVGGMISSFLIGIISQWLGRKRAMLANNVLAVLGGALMGLANAAASYEILILGRFLIGAYSGLTSGLVPMYVGEIAPTHLRGALGTLNQLAIVIGILVAQVLGLESMLGTATLWPLLLALTVLPALLQLILLPFCPESPRYLYIIRNLEGPARKSLKRLTGWADVSDALAELKDEKRKLERERPMSLLQLLGSRTHRQPLIIAVVLQLSQQLSGINAVFYYSTSIFESAGVGQPAYATIGAGVVNTVFTLVSVLLVERAGRRTLHLLGLAGMCGCAILMTVALLLLERVPAMSYVSIVAIFGFVAFFEIGPGPIPWFIVAELFSQGPRPAAMAVAGFSNWTCNFIVGMGFQYVADAMGPYVFLLFAVLLLGFFIFTFLKVPETRGRTFDQISAAFRRTPSLLEQEVKPSTELEYLGPDEND

- binding [2]: binds
- binding [3]: binds
- binding [4]: binds
B2: PTP1B (endogenous in 3T3-L1 adipocytes) (enzyme, UniProt P35821 1-432)
chain: MEMEKEFEEIDKAGNWAAIYQDIRHEASDFPCKVAKLPKNKNRNRYRDVSPFDHSRIKLHQEDNDYINASLIKMEEAQRSYILTQGPLPNTCGHFWEMVWEQKSRGVVMLNRIMEKGSLKCAQYWPQQEEKEMVFDDTGLKLTLISEDVKSYYTVRQLELENLTTKETREILHFHYTTWPDFGVPESPASFLNFLFKVRESGSLSLEHGPIVVHCSAGIGRSGTFCLADTCLLLMDKRKDPSSVDIKKVLLEMRRFRMGLIQTADQLRFSYLAVIEGAKFIMGDSSVQDQWKELSREDLDLPPEHVPPPPRPPKRTLEPHNGKCKELFSSHQWVSEETCGDEDSLAREEGRAQSSAMHSVSSMSPDTEVRRRMVGGGLQSAQASVPTEEELSSTEEEHKAHWPSHWKPFLVNVCMATLLATGAYLCYRVCFH

- binding [6]: binds
- binding [7]: binds
B3: Munc18c (endogenous) (protein, UniProt Q60770 1-592)
chain: T1 sequence
- binding [5]: no binding (condition: treatment with pervanadate)

- binding [7]: binds
B4: Munc18c Y521F (protein, UniProt Q60770 1-592)
chain: T1 sequence with Y521F

- binding [7]: binds
B5: Munc18c Y218/219F (protein, UniProt Q60770 1-592)
chain: T1 sequence with Y218F, Y219F

Source: PMC3751566
